Assay results reported in the supplement of paper PMC3334620.
Whole data set: some 33,000 sequences, median “E-score (-0.5 to 0.5)” near -0.0034, cut for the highest 2% near 0.25. The list shows a part of the results.

Each sequence was assayed against T1, Yap3 (UniProt P38749) (assay: PBM E-score (8-mer binding enrichment) (E-score (-0.5 to 0.5)); higher = stronger / more preferred TF binding). Settings: protein concentration: 100 nM; construct: GST-full length.
T1 sequence: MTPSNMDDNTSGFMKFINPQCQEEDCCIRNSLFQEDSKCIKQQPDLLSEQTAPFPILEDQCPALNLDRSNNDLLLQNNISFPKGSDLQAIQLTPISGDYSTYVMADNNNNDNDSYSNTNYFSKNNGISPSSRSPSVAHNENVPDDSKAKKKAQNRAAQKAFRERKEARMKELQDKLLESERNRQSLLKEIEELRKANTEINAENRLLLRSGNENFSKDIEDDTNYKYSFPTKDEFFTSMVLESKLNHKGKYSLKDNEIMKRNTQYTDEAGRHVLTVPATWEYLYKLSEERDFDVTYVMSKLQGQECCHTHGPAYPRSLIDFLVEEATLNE
How it was run: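 Universal all-10-mer Agilent arrays, fresh or stripped once, were converted to double-stranded form by primer extension. GST-tagged yeast transcription factors from PURExpress in vitro transcription/translation, full-length or DNA-binding domain only, were applied at about 100-200 nM and detected with fluorescent anti-GST. After masliner normalisation, the Universal PBM Analysis Suite scored each ungapped eight-base word together with its reverse complement by E-score.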

Sequence	PBM E-score
GGAAAACA	0.243
CTCTATCA	0.00374
ACTGACCT	-0.0214
CAAACGTA	0.132
GTACCGTA	0.0667
GCTTGCCC	-0.375
GCGTCAGC	-0.246
CGCTATAC	0.0139
AGGCTACC	-0.232
ATGTTTTG	0.172
CAGTACGG	-0.0221
GTCTCAGA	-0.0813
CGATAAAC	-0.0635
TGCAGAAA	0.18
AGGACAAA	0.167
GCGCGATA	0.099
CACGTTCA	-0.0368
CCCGGTTC	-0.304
AAACCGCA	-0.182
GACCCTGA	-0.17
TCGGGACA	-0.21
AGTAGGTG	-0.044
CATCTATC	-0.0241
AAATTGCA	0.138
GTCTAACA	-0.104

Pulled one by one from the list above, 4 records:
Sequence	PBM E-score
ATGTTTTG	0.172
ACTGACCT	-0.0214
AGTAGGTG	-0.044
GGAAAACA	0.243

Continuation:

Sequence	PBM E-score
CGGAACGA	0.188
ATTGAGTC	-0.0197
GTCTACGA	-0.227
AGTTGTCC	-0.0231
CGATCTGA	-0.0186
ACAGCGGC	-0.0324
ACATATGT	0.167
AGCTCCCC	-0.312
GACCGCTC	-0.232
CTCTCCAG	-0.355
ACGGTGTC	-0.155
CCGGCTTA	-0.048
AAACCCGT	-0.143
ATCTTCAC	-0.00342
ACGCTTCA	-0.133
CCCTACAG	-0.0996
GATTCAGA	0.0691
CTATGCTA	0.0834
ATATCGAT	0.223
AAAGCTTC	-0.13
GCTTCCCA	-0.0981
CTATCAAC	0.0852
TTAATGAA	0.187
GAGTCTAC	-0.163
CAGGGGGA	-0.338

Sequence	PBM E-score
ATGTTGAC	0.15
ACAGCAGA	-0.0637
CCAAAGGG	-0.182
CCTACACG	-0.251
CCTTGCGC	0.00663
GGACATCC	-0.169
CCAATCCC	0.0775
CAACTCTC	-0.044
CGTATGTC	-0.0305
ACTATCTC	0.145
AAGTTAAC	0.193
CAAATTTG	0.144
TACACCCA	0.0384
GGCGTTTA	0.0247
GTTTACTA	0.196
CAGTGCAA	0.0797
GTTTCTAA	0.0152
GTTGACGA	0.109
CACCATAC	-0.0118
ATAAATTA	0.365
ACCAGTCA	0.0862
CTCTATTA	0.0839
CAGAGGGG	-0.395
ACTGTACT	0.0814
ATCATGTC	0.0372

Sequence	PBM E-score
ATAATAGG	0.157
CGTTGGCC	-0.213
ACCCTGTA	0.00489
AAGGCTAG	0.0764
CCAACAAG	-0.0107
GTAATGTA	0.2
AGTGGTCC	-0.146
CCTGGTAC	-0.0396
CTATTTTA	0.251
ATCGTTAA	0.17
GTTACACA	-0.0287
AGGGTTCA	-0.0847
CGTTACAG	0.011
CGCATAGC	-0.137
GCGGAGCA	-0.206
AAGCACTC	-0.109
AATTTCAC	0.194
ACTCGTCT	0.058
ACATCTTA	-0.0189
ACACTGTC	-0.0325
ACGAAGAT	0.0321
CGGGTTAG	-0.155
AATTGAGC	-0.0534
CCAACTCC	0.117
TCGGGGAA	0.0864

Sequence	PBM E-score
CCCACGAC	-0.287
GGGAACAA	0.213
CGAGGGAA	0.00016
CTATTGGC	-0.119
GAGTGAGC	-0.0403
AGTCCGCG	-0.172
AAGGTCAG	-0.112
CACAAGAA	0.169
ATAGTGTA	0.141
GGGATACC	-0.27
AAGCAAAC	0.096
AGTTTTCA	0.184
AAGCTTCT	0.00604
AGGATGGG	-0.185
GGTCGACA	-0.0148
CATAGCAG	-0.148
AGGTCTAG	-0.186
AGATATAG	0.136
ACGCGAGT	0.087
TGTCTGAA	0.168
GATACCAC	0.0539
ACGAGCTC	-0.0766
ACGGACAG	-0.147
ACCATTCC	0.0791
AACGTACC	-0.00955

A section from further up:
Sequence	PBM E-score
CATAGCAG	-0.148
AGGTCTAG	-0.186
AGATATAG	0.136
ACGCGAGT	0.087
TGTCTGAA	0.168

Additional entries follow:

Sequence	PBM E-score
AGCAAGGG	-0.0892
GAGCCGGA	-0.213
CTTTGTAA	0.27
AAAGAACG	0.151
CCTCCCCA	-0.0831
AACATTGC	-0.159
CGTTGGAA	-0.0926
AGTAACCG	0.0701
CAATGAAA	0.077
CGTAGGGA	-0.167
AACTCAGC	-0.0226
GTCATCCA	0.0539
ATTCGGCC	-0.00866
GGGATTAC	0.00382
TGGTTAAA	0.132
CTCAGAGA	-0.0892
CATTTAGA	0.0705
ACTTTCCA	0.125
TATGCATA	0.101
CTCTCGTC	-0.101
CGCACATC	-0.0346
GAAGTGCC	-0.0109
ATATCGTG	0.0998
AATGGCCG	-0.0799
AAGGAACA	-0.126

Sequence	PBM E-score
ATTGTATC	0.0413
CCCCAGGC	-0.433
ATCAACCG	-0.0115
ACAGAGGG	-0.1
ATTGGGAC	0.0878
ACACTGCC	0.125
CTCACGGA	-0.107
ATGCTTTG	-0.00817
CGTAAAAA	0.128
AGACACAA	0.11
AGGACCCT	-0.358
GTGAATAA	0.242
CCTCTACC	-0.0767
ACCTTTCT	0.0996
ATAAATGC	0.0282
CTTGTGCC	-0.145
ATAATTAT	0.302
ACCCTCCT	-0.256
GATTGAGC	0.0624
CAGTAGCA	-0.0517
GTTAAAGA	0.09
AATCAGGC	0.00403
